Laboratory results: PubChem BioAssay AID743121 (NCATS, 2013)
This is an unselected part of about 26,000 deposited reagents. In the full data, 167 (0.63%) were called active. 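Calls are per gene from RSA p-values that are not deposited; an individual active-marked siRNA can sensitise only weakly.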 The numbers tell different reagents against one gene apart. Not all columns of the deposit are shown.

Aim: 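Knock-downs that sensitise breast cancer cells to camptothecin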 (primary screen)
Cell system: MDA-MB-231 cells, a human breast cancer line
Knock-down reagent: single siRNA against human genes, 20 nM siRNA (0.8 pmol per well)
Duration: 120 h (drug added 48 h after transfection, read 72 h later)
Conditions: camptothecin 20 nM (about EC30) for 72 h; vehicle 0.1% DMSO in parallel plates
Measured: 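Cell viability by ATP luminescence (CellTiter-Glo) as % of non-targeting siRNA wells, and the log2 ratio of viability without drug over viability with camptothecin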
Direction: log2 vehicle/camptothecin viability: higher = stronger sensitisation to camptothecin
Call rule: 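Each gene scored by redundant siRNA activity (RSA) over its individual siRNA ratios; a gene is called active at p < 0.001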

DAO (GeneID 1610) #1
- log2 vehicle/camptothecin viability: -0.0269
- outcome: inactive

DAO (GeneID 1610) #2
- log2 vehicle/camptothecin viability: -0.752
- outcome: inactive

DAO (GeneID 1610) #3
- log2 vehicle/camptothecin viability: -0.368
- outcome: inactive

DAO (GeneID 1610) #4
- log2 vehicle/camptothecin viability: -0.517
- outcome: inactive

PLXNC1 (GeneID 10154) #1
- log2 vehicle/camptothecin viability: 0.882
- outcome: inactive

PLXNC1 (GeneID 10154) #2
- log2 vehicle/camptothecin viability: -0.374
- outcome: inactive

PLXNC1 (GeneID 10154) #3
- log2 vehicle/camptothecin viability: 0.769
- outcome: inactive

TFAP2C (GeneID 7022) #1
- log2 vehicle/camptothecin viability: 0.0499
- outcome: inactive

TFAP2C (GeneID 7022) #2
- log2 vehicle/camptothecin viability: 0.0538
- outcome: inactive

TFAP2C (GeneID 7022) #3
- log2 vehicle/camptothecin viability: -0.371
- outcome: inactive

CD72 (GeneID 971) #1
- log2 vehicle/camptothecin viability: -0.574
- outcome: inactive

CD72 (GeneID 971) #2
- log2 vehicle/camptothecin viability: 0.0978
- outcome: inactive

CD72 (GeneID 971) #3
- log2 vehicle/camptothecin viability: 0.357
- outcome: inactive

CD72 (GeneID 971) #4
- log2 vehicle/camptothecin viability: -0.27
- outcome: inactive

TOM1 (GeneID 10043) #1
- log2 vehicle/camptothecin viability: -0.152
- outcome: inactive

TOM1 (GeneID 10043) #2
- log2 vehicle/camptothecin viability: 0.0866
- outcome: inactive

TOM1 (GeneID 10043) #3
- log2 vehicle/camptothecin viability: 0.149
- outcome: inactive

TOM1 (GeneID 10043) #4
- log2 vehicle/camptothecin viability: -0.332
- outcome: inactive

MTMR2 (GeneID 8898) #1
- log2 vehicle/camptothecin viability: 0.173
- outcome: active

MTMR2 (GeneID 8898) #2
- log2 vehicle/camptothecin viability: 0.561
- outcome: active

MTMR2 (GeneID 8898) #3
- log2 vehicle/camptothecin viability: 0.315
- outcome: active

MTMR2 (GeneID 8898) #4
- log2 vehicle/camptothecin viability: 0.259
- outcome: active

PDZD2 (GeneID 23037) #1
- log2 vehicle/camptothecin viability: -0.176
- outcome: inactive

PDZD2 (GeneID 23037) #2
- log2 vehicle/camptothecin viability: -0.262
- outcome: inactive

PDZD2 (GeneID 23037) #3
- log2 vehicle/camptothecin viability: -0.493
- outcome: inactive

PDZD2 (GeneID 23037) #4
- log2 vehicle/camptothecin viability: -0.742
- outcome: inactive

LONP2 (GeneID 83752) #1
- log2 vehicle/camptothecin viability: 0.148
- outcome: inactive

LONP2 (GeneID 83752) #2
- log2 vehicle/camptothecin viability: -0.515
- outcome: inactive

LONP2 (GeneID 83752) #3
- log2 vehicle/camptothecin viability: -0.356
- outcome: inactive

LONP2 (GeneID 83752) #4
- log2 vehicle/camptothecin viability: -0.00345
- outcome: inactive

CCL8 (GeneID 6355) #1
- log2 vehicle/camptothecin viability: -0.366
- outcome: inactive

CCL8 (GeneID 6355) #2
- log2 vehicle/camptothecin viability: -0.386
- outcome: inactive

CCL8 (GeneID 6355) #3
- log2 vehicle/camptothecin viability: -0.0359
- outcome: inactive

CCL8 (GeneID 6355) #4
- log2 vehicle/camptothecin viability: -0.185
- outcome: inactive

CUEDC1 (GeneID 404093) #1
- log2 vehicle/camptothecin viability: 0.784
- outcome: inactive

CUEDC1 (GeneID 404093) #2
- log2 vehicle/camptothecin viability: -0.079
- outcome: inactive

CUEDC1 (GeneID 404093) #3
- log2 vehicle/camptothecin viability: -0.529
- outcome: inactive

Look-ups from the entries so far:
Entry of PDZD2 (GeneID 23037) #2 under “outcome”: inactive
Under “outcome”, PDZD2 (GeneID 23037) #1 is entered as inactive
Entry of PLXNC1 (GeneID 10154) #2 in “outcome”: inactive
Entry for DAO (GeneID 1610) #3 in “outcome”: inactive
Under “outcome”, DAO (GeneID 1610) #2 has inactive
Under “outcome”, CD72 (GeneID 971) #4 is entered as inactive
